Test results reported in patent publication US10064926B2, “Peptides and combination of peptides for use in immunotherapy against hepatocellular carcinoma (HCC) and other cancers” (Immatics biotechnologies GmbH, priority 2014, dated 2018).
For part of these data: Expression values are those of the mRNA of the gene that encodes the peptide; a gene is named only where it was looked up.

Legend:
[1] = test system: primary HCC tissue samples; assay: Identification and label-free LC-MS relative quantitation of HLA-presented peptides (presentation profiles/scores), HCC versus normal tissues; set-up: species or system human; key to PeptidePresentation (presentation score): very highly over-presented on tumors compared to a panel of normal tissues (+++); highly over-presented on tumors compared to a panel of normal tissues (++); over-presented on tumors compared to a panel of normal tissues (+); details: for PeptidePresentation (presentation score): HCC tumors compared to a panel of normal tissues
[2] = test system: source genes of the peptides in HCC and normal tissues; assay: mRNA expression profiling of source genes by Affymetrix microarray (expression scores); set-up: species or system human; key: very highly overexpressed in tumors compared to a panel of normal tissues (+++); highly overexpressed in tumors compared to a panel of normal tissues (++); overexpressed in tumors compared to a panel of normal tissues (+); details: source gene mRNA in tumors compared to a panel of normal tissues
[3] = test system: tumor samples of other tumor types; assay: Over-presentation of peptides on additional tumor types versus normal tissues (LC-MS); set-up: species or system human; details: over-presentation on more than 5% of the measured tumor samples, or presentation on more than 5% with ratio of geometric means tumor vs normal tissues larger than 3

Substance	PeptidePresentation (presentation score) [1]	Gene Expression (expression score) [2]	over-presentation in HCC compared with normal tissues ([1]; FIG. 1 presentation profiles)	Other relevant organs/diseases (additional tumor types on which the peptide was found over-presented) [3]	Additional Entities (additional tumor types on which the peptide was found over-presented) [3]
4: peptide found in APOB (gene looked up) (KLQDFSDQL; listed as Homo sapiens) [compound 4]	+++	+++			
5: peptide found in APOB (gene looked up) (ALVEQGFTV; listed as Homo sapiens) [compound 5]	+++	+++			
7: peptide found in APOB (gene looked up) (ALVDTLKFV; listed as Homo sapiens) [compound 7]	+++	+++	over-presentation		
13: peptide found in HSD11B1 (gene looked up) (GLIDTETAMKAV; listed as Homo sapiens) [compound 13]		+++			
19: peptide found in APOB (gene looked up) (FLEETKATV; listed as Homo sapiens) [compound 19]	+++	+++			
21: peptide found in APOB (gene looked up) (QLIEVSSPITL; listed as Homo sapiens) [compound 21]	+++	+++			
25: peptide found in APOB (gene looked up) (SLDGKAALTEL; listed as Homo sapiens) [compound 25]	+++	+++			
27: peptide found in APOB (gene looked up) (TLPDFRLPEI; listed as Homo sapiens) [compound 27]	+++	+++			
28: peptide found in APOB (gene looked up) (TLQDHLNSL; listed as Homo sapiens) [compound 28]	+++	+++			
29: peptide found in APOB (gene looked up) (YIQDEINTI; listed as Homo sapiens) [compound 29]	+++	+++			
41: peptide found in F9 (gene looked up) (ALLELDEPLVL; listed as Homo sapiens) [compound 41]		+++		Pancreas	
42: peptide found in ACSL4 (gene looked up) (ALLGGNVRMML; listed as Homo sapiens) [compound 42]	+++	+			
49: peptide found in APOB (gene looked up) (FLYPEKDEPT; listed as Homo sapiens) [compound 49]	+++	+++			
50: peptide found in APOB (gene looked up) (FTIPKLYQL; listed as Homo sapiens) [compound 50]		+++			
61: peptide found in APOB (gene looked up) (KIADFELPTI; listed as Homo sapiens) [compound 61]	+++	+++			
66: peptide found in CYP2E1 (gene looked up) (KLHEEIDRV; listed as Homo sapiens) [compound 66]	++	+++			
67: peptide found in APOB (gene looked up) (KLKETIQKL; listed as Homo sapiens) [compound 67]	+++	+++			
73: peptide found in ABCB11 (gene looked up) (KLTLVIISV; listed as Homo sapiens) [compound 73]		+++			
82: peptide found in APOB (gene looked up) (NVFDGLVRV; listed as Homo sapiens) [compound 82]	+	+++			
83: peptide found in ABCB11 (gene looked up) (QLHDFVMSL; listed as Homo sapiens) [compound 83]	+++	+++			
84: peptide found in ABCC2 (gene looked up) (QLTPVLVSV; listed as Homo sapiens) [compound 84]	++	++			
87: peptide found in PAH (gene looked up) (RLFEENDVNL; listed as Homo sapiens) [compound 87]		+++			

Substance	PeptidePresentation (presentation score) [1]	Gene Expression (expression score) [2]	over-presentation in HCC compared with normal tissues ([1]; FIG. 1 presentation profiles)	Other relevant organs/diseases (additional tumor types on which the peptide was found over-presented) [3]	Additional Entities (additional tumor types on which the peptide was found over-presented) [3]
93: peptide found in CYP2E1 (gene looked up) (RLYTMDGITV; listed as Homo sapiens) [compound 93]	+++	+++			
100: peptide found in CRP (gene looked up) (SLVGDIGNVNM; listed as Homo sapiens) [compound 100]		+++			
105: peptide found in PON2 (gene looked up) (SVYDGKLLI; listed as Homo sapiens) [compound 105]		+			
106: peptide found in ABCB1 (gene looked up) (TLAAIIHGA; listed as Homo sapiens) [compound 106]		++			
109: peptide found in APOB (gene looked up) (TLYALSHAV; listed as Homo sapiens) [compound 109]	+	+++			
110: peptide found in CRP (gene looked up) (TVGGSEILFEV; listed as Homo sapiens) [compound 110]		+++			SCLC, Gallbladder Cancer, Bile Duct Cancer
113: peptide found in APOB (gene looked up) (VLMDKLVEL; listed as Homo sapiens) [compound 113]	++	+++			
117: peptide found in SLC16A1 (gene looked up) (YAFPKSITV; listed as Homo sapiens) [compound 117]	+++	+			
120: peptide found in TF (gene looked up) (YLGEEYVKA; listed as Homo sapiens) [compound 120]	+++	+++			
124: peptide found in APOB (gene looked up) (LLIDVVTYL; listed as Homo sapiens) [compound 124]	+++	+++			
126: peptide found in APOB (gene looked up) (TLLDSPIKV; listed as Homo sapiens) [compound 126]	++	+++			
132: peptide found in CYP27A1 (gene looked up) (ALHEEVVGV; listed as Homo sapiens) [compound 132]	+	++			
141: peptide found in GPR107 (gene looked up) (AMGEKSFSV; listed as Homo sapiens) [compound 141]		+		Brain	Melanoma
149: peptide found in ARG1 (gene looked up) (GLLSGLDIMEV; listed as Homo sapiens) [compound 149]		+++			SCLC
158: peptide found in FMO5 (gene looked up) (RIISGLVKV; listed as Homo sapiens) [compound 158]		++			
160: peptide found in CFH (gene looked up) (RLLAKIICL; listed as Homo sapiens) [compound 160]		+++			
175: peptide found in GRB14 (gene looked up) (TLFEHLPHI; listed as Homo sapiens) [compound 175]		++			
182: peptide found in AKR1C4 (gene looked up) (YLLHFPMAL; listed as Homo sapiens) [compound 182]		+++			
183: peptide found in AKR1C4 (gene looked up) (YLYNNEEQVGL; listed as Homo sapiens) [compound 183]		+++			
215: peptide found in GGH (gene looked up) (IYTGNISSF; listed as Homo sapiens) [compound 215]		+++			
259: peptide found in CPSF1 (gene looked up) (TLITDGMRSV; listed as Homo sapiens) [compound 259]		+		Brain	RCC, CRC, OC, Esophageal Cancer, Urinary bladder cancer, Gallbladder Cancer, Bile Duct Cancer, PC
347 (ALNPADITV; listed as Homo sapiens) [compound 347]	+			Brain	
